Values joined by “and” are separate entries in the source; they are usually repeats but may differ in a detail not shown here. Identical values can stand only once. Counter-ions that a name gives are not always drawn. ± gives the standard deviation of the averaged measurements. The list shows a part of the results. Repeats are few or missing, and single values can be far off.
Tested on: RAW 264.7
Assay: cell viability (MTT) relative to vehicle control; higher = more viable cells
Conditions: stimulus: HMGB1 5 ug/ml, 18 h
[1] = compound concentration: 1 ug/ml

NC(N)=NCCC[C@H](NC(=O)c1ccccc1)C(=O)O [N-à-Benzoyl-L-arginine]
cell viability [1]: 96.7%

O=C(O)Cc1ccc(O)c(O)c1 [3,4-Dihydroxyphenylacetic acid]
cell viability (compound concentration: 3 uM): 96.9%

CCCc1nc2c(C)cc(-c3nc4ccccc4n3C)cc2n1Cc1ccc(-c2ccccc2C(=O)O)cc1 [Telmisartan]
cell viability (compound concentration: 3 uM): 86.4 ± 1.3%

CCCc1nc2c(C)cc(-c3nc4ccccc4n3C)cc2n1Cc1ccc(-c2ccccc2C(=O)O)cc1
cell viability (compound concentration: 3 uM): 93.6%

CCCCOC(=O)c1ccc(O)cc1
cell viability (compound concentration: 3 uM): 105%

CCCCOC(=O)c1ccc(O)cc1 [Butylparaben]
cell viability (compound concentration: 3 uM): 92.4%

C#C[C@]1(OC(C)=O)CC[C@H]2[C@@H]3CCC4=CC(=O)CC[C@@H]4[C@H]3CC[C@@]21C
cell viability (compound concentration: 3 uM): 110%

COCCCOc1cc(C[C@@H](C[C@H](N)[C@@H](O)C[C@H](C(=O)NCC(C)(C)C(N)=O)C(C)C)C(C)C)ccc1OC
cell viability (compound concentration: 3 uM): 110%

CNCCCCOc1ccccc1Cc1ccccc1 [Bifemelane]
cell viability (compound concentration: 3 uM): 94.4%

O=C(O)Cc1cc(I)c(Oc2ccc(O)c(I)c2)c(I)c1
cell viability (compound concentration: 3 uM): 112%

O=C(O)Cc1cc(I)c(Oc2ccc(O)c(I)c2)c(I)c1 [Tiratricol, 3,3',5-triiodothyroacetic acid]
cell viability (compound concentration: 3 uM): 97.3%

COCCCOc1ccnc(C[S+]([O-])c2nc3ccccc3[nH]2)c1C (centres undefined)
cell viability (compound concentration: 3 uM): 96.3% and 93.9%

COCCCOc1ccnc(C[S+]([O-])c2nc3ccccc3[nH]2)c1C (centres undefined) [Rabeprazole]
cell viability (compound concentration: 3 uM): 117%

CCN(CC)CCCN(c1ccccc1)C1Cc2ccccc2C1 [Aprindine hydrochloride]
cell viability (compound concentration: 3 uM): 109%

CC(Cc1ccc(O)c(O)c1)C(C)Cc1ccc(O)c(O)c1 (centres undefined) [Nordihydroguaiaretic acid]
cell viability [1]: 91.6%

O=C(CCCCC(=O)Nc1c(I)cc(I)c(C(=O)O)c1I)Nc1c(I)cc(I)c(C(=O)O)c1I
cell viability (compound concentration: 3 uM): 103%

O=C(CCCCC(=O)Nc1c(I)cc(I)c(C(=O)O)c1I)Nc1c(I)cc(I)c(C(=O)O)c1I [Iodipamide]
cell viability (compound concentration: 3 uM): 80.5%

c1ccc(CN2CCC3(CCCc4ccccc43)CC2)cc1 [L-687,384 hydrochloride]
cell viability (compound concentration: 3 uM): 97.3%

CNCC[C@@H](Oc1ccccc1C)c1ccccc1 [Tomoxetine]
cell viability (compound concentration: 3 uM): 119%

CNCC[C@@H](Oc1ccccc1C)c1ccccc1
cell viability (compound concentration: 3 uM): 108%

CNCC[C@@H](Oc1ccccc1C)c1ccccc1 [Tomoxetine hydrochloride]
cell viability (compound concentration: 3 uM): 113%

Cc1ccc(C(=O)C(C)CN2CCCCC2)cc1 (centres undefined)
cell viability (compound concentration: 3 uM): 110%

CSc1nc(N)c2ncn([C@@H]3O[C@H](COP(=O)(O)OP(=O)(O)O)[C@H](O)C3O)c2n1 (some centres undefined)
cell viability (compound concentration: 3 uM): 114%

Nc1c(S(=O)(=O)O)cc(Nc2ccc(Nc3nc(Cl)nc(Nc4cccc(S(=O)(=O)O)c4)n3)c(S(=O)(=O)O)c2)c2c1C(=O)c1ccccc1C2=O [Reactive Blue 2]
cell viability (compound concentration: 3 uM): 122%

From the supplement of paper PMC3682954
